The campaign covered roughly 340,000 compounds. About 6,200 (1.8%) were called active. This list was built around the results that the source calls inconclusive (neither active nor inactive); the mix of calls is not that of the screen. The call rests on the fitted dose curve; in most records, active means well fitted activation curve with a large enough effect; inconclusive means small, poorly fitted or top-dose-only effect; inactive means no such curve, though single readings can be large or run the other way. Potencies beside an inconclusive call are fits to weak or partial responses and may not hold up.
Test: A quantitative high throughput screen for small molecules that induce DNA re-replication in SW480 colon adenocarcinoma cells. Further: nearly all actives have a fitted effect of over 55% in size. On re-replication activation: % of control where 0% means no effect.
Conditions: Hoechst DNA content imaging, 48 h; re-replication activation: at 46.1 µM (top of the series) unless noted
Outline: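 Image-based read-out: total Hoechst fluorescence of nuclei (405 nm excitation, 500-530 nm emission), with hits raising the fraction of high-intensity nuclei. SW480 colon cells incubated 48 hr with compounds at 37 C.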
Potency means the concentration at half of the fitted maximal effect.

Q: For `CCO/C(C)=C1/SC(=S)NC1=O`, which re-replication activation is on record?
A: Its re-replication activation is inactive: -5.23% [at 9.22 µM].

Q: For `COc1ccc(OCC(O)CN2C(=O)c3ccccc3C2=O)cc1` (configuration not stated), which Potency is on record?
A: The Potency was inconclusive: 1.64 µM [activator, partial curve, poor fit].

Q: With `CC1CC(C)CN(c2nc(N(C)c3ccccc3)nc(N)c2[N+](=O)[O-])C1` (configuration not stated) as the compound, how does the Potency read?
A: The Potency was “inactive”.

Q: For `COc1ccc(CNC(=O)COC(=O)CN2C(=O)COc3ccccc32)cc1`, which Potency is on record?
A: Its Potency is inconclusive: 4.11 µM [activator, single point].

Q: With `COc1cccc(CN2CCCCC2C(=O)O)c1` (configuration not stated) as the compound, how does the Potency read?
A: The Potency was “inactive”.

Q: For `Cc1ccc(NC(=O)c2cnc3ccccc3n2)cc1C`, which Potency is on record?
A: Its Potency is inconclusive: 14.6 µM [activator, single point].

Q: Which Potency does the source give for `O=C(NCCCN1CCOCC1)c1ccc2c(=O)n(-c3ccc(F)c(Cl)c3)c(=S)[nH]c2c1` here?
A: Its Potency is inconclusive: 29.1 µM [activator, single point].

Q: Which Potency does the source give for `COc1ccc(S(=O)(=O)N(C)C[C@@H]2Oc3ccc(NC(=O)Nc4c(C)noc4C)cc3C(=O)N([C@H](C)CO)C[C@@H]2C)cc1` here?
A: The Potency was inconclusive: 0.411 µM [activator, partial curve, poor fit].

Q: With `O=C(Cn1cnc2sc(-c3ccccc3)cc2c1=O)NCCc1ccccc1` as the compound, how does the Potency read?
A: The Potency was inconclusive: 18.4 µM [activator, single point].

Q: With `O=C(c1n[nH]c2ccccc12)N1CCN(c2ccc(F)cc2)CC1` as the compound, how does the Potency read?
A: The Potency was “inactive”.

Q: For `COC(=O)c1c(-c2ccccc2)noc1C`, which Potency is on record?
A: Its Potency is “inactive”.

Q: Which Potency does the source give for `CCCCCCC(=O)N(O)C1CC(=O)N(c2ccc(Br)cc2)C1=O` (configuration not stated) here?
A: Its Potency is inconclusive: 20.6 µM [activator, single point].

Q: With `O=C1/C(=C\c2ccco2)SC(=S)N1C1CCS(=O)(=O)C1` (configuration not stated) as the compound, how does the Potency read?
A: Its Potency is inconclusive: 23.1 µM [activator, partial curve, poor fit].

Q: Which Potency does the source give for `N#CC1=C(N)Oc2cc(O)ccc2C1c1cccs1` (configuration not stated) here?
A: The Potency was “inactive”.

Q: For `O=C(NCc1cccc(Cl)c1)C1CCC(=O)N(C2CC2)C1` (configuration not stated), which Potency is on record?
A: The Potency was inconclusive: 18.4 µM [activator, single point].

Q: For `Cc1nc(-c2ccccc2)sc1C1(C)CC(c2cccc(F)c2)=NO1` (configuration not stated), which Potency is on record?
A: Its Potency is “inactive”.

Q: With `CN(Cc1ccccc1)C(=O)c1[nH]cnc1C(=O)N[C@@H](Cc1ccccc1)C(=O)OC(C)(C)C` as the compound, how does the Potency read?
A: Its Potency is “inactive”.

Q: For `COc1ccc(NC(=O)C(=O)NCCC2CCCCN2S(=O)(=O)c2ccc(F)cc2)cc1` (configuration not stated), which Potency is on record?
A: The Potency was inconclusive: 11.6 µM [activator, partial curve, poor fit].

Q: For `COc1cccc(-c2cc(C(F)(F)F)n3ncc(S(=O)(=O)c4ccccc4)c3n2)c1`, which Potency is on record?
A: The Potency was active: 8.2 µM.

Q: For `Cc1ccc(-c2ccnc(-c3ccc(O)cc3)n2)cc1`, which Potency is on record?
A: Its Potency is “inactive”.

Q: With `N#CC1=C(N)Oc2cc(Nc3ccccc3)ccc2C1c1ccncc1` (configuration not stated) as the compound, how does the Potency read?
A: The Potency was active: 16.4 µM.

Q: For `CCOC(=O)/C(C#N)=C/c1c(OCC)n(CC)c2ccccc12`, which Potency is on record?
A: The Potency was “inactive”.

Q: For `C[C@]12CC[C@H]3C(=CCc4cc(O)ccc43)[C@@H]1CCC2=O`, which Potency is on record?
A: Its Potency is “inactive”.

Q: For `CC1(C)COC(/C=C/c2ccc([N+](=O)[O-])cc2)=N1`, which Potency is on record?
A: The Potency was active: 16.4 µM.

Q: Which Potency does the source give for `Cn1c(SCC(=O)Nc2ccc3[nH]c(=O)[nH]c3c2)nnc1-c1ccc(F)cc1` here?
A: Its Potency is “inactive”.

Q: With `COc1ccccc1N(C(=O)c1snc(C(N)=O)c1N)C(C(=O)NC1CCCCC1)c1cccc(OC)c1OC` (configuration not stated) as the compound, how does the Potency read?
A: The Potency was inconclusive: 29.1 µM [activator, partial curve, poor fit].

Q: For `COCC(C)n1c(C)cc(C(=O)COC(=O)c2c(C)nn(-c3ccccc3)c2C)c1C` (configuration not stated), which Potency is on record?
A: Its Potency is inconclusive: 14.6 µM [activator, partial curve, poor fit].

Q: Which Potency does the source give for `CCc1cccc(OCC(=O)Nc2cc(S(=O)(=O)N3CCOCC3)ccc2N2CCCC2)c1` here?
A: Its Potency is inconclusive: 2.06 µM [activator, partial curve, poor fit].

Q: With `COc1ccccc1-n1cn[nH]c1=S` as the compound, how does the Potency read?
A: The Potency was inconclusive: 29.1 µM [activator, single point].

Q: With `O=c1c(Cl)c(Cl)cnn1Cc1ccccc1Cl` as the compound, how does the Potency read?
A: The Potency was inconclusive: 3.16 µM [activator, full curve].

Q: For `CCOC(=O)N(C)S(=O)(=O)c1ccccc1[N+](=O)[O-]`, which Potency is on record?
A: Its Potency is “inactive”.

Q: With `COc1ccc(CNCCC(c2ccc(F)cc2)c2ccc(OC(C)C)cc2)cc1OC` (configuration not stated) as the compound, how does the Potency read?
A: Its Potency is inconclusive: 29.1 µM [activator, single point].

Q: With `OCCN(CCO)c1cc2c3ccccc3ccc2c2ccccc12` as the compound, how does the Potency read?
A: Its Potency is inconclusive: 20.6 µM [activator, single point].

Q: With `O=C(NCc1ccccc1)c1ccc2c(c1)C(=O)N(CC1CCCO1)C2=O` (configuration not stated) as the compound, how does the Potency read?
A: Its Potency is inconclusive: 6.51 µM [activator, single point].

Q: Which Potency does the source give for `CCOC(=O)C1(Cc2ccc(Cl)cc2)CCN(C(C)Cc2ccc(O)c(OC)c2)CC1` (configuration not stated) here?
A: Its Potency is inconclusive: 11.6 µM [activator, partial curve].

Q: With `O=C(COC(=O)COc1ccc2ccccc2c1)Nc1cc(C(F)(F)F)ccc1N1CCOCC1` as the compound, how does the Potency read?
A: The Potency was inconclusive: 5.8 µM [activator, full curve, poor fit].

Q: With `c1ccc2scnc2c1` as the compound, how does the Potency read?
A: Its Potency is inconclusive: 0.058 µM [activator, full curve, poor fit].

Q: For `O=C(c1ccc(Cl)c(Cl)c1)N1CCC(=O)N(C(COCc2ccccc2)Cc2ccccc2)CC1` (configuration not stated), which Potency is on record?
A: The Potency was inconclusive: 9.2 µM [activator, partial curve, poor fit].

Q: With `O=C(Cn1cnc2c(OCc3ccccc3)ncnc21)NCc1nc2ccccc2[nH]1` as the compound, how does the Potency read?
A: The Potency was inconclusive: 2.59 µM [activator, full curve, poor fit].

Q: Which Potency does the source give for `CC1=C([N+](=O)[O-])C(c2ccccc2)NC(=O)N1` (configuration not stated) here?
A: Its Potency is inconclusive: 14.6 µM [activator, single point].

Q: Which re-replication activation does the source give for `COC(=O)CNC(c1ccccc1)c1cc(Br)ccc1NC(=O)OCc1ccccc1` (configuration not stated) here?
A: The re-replication activation was inactive: -2.4% [at 9.22 µM].

Q: Which Potency does the source give for `CN(C(=O)COC(=O)c1cc(S(=O)(=O)N2CCOCC2)ccc1F)C1CCS(=O)(=O)C1` (configuration not stated) here?
A: The Potency was “inactive”.

Q: For `O=C(c1ccco1)N1CCN(CC(O)COc2ccc(Br)cc2)CC1` (configuration not stated), which Potency is on record?
A: The Potency was inconclusive: 29.1 µM [activator, partial curve, poor fit].

Q: For `C=CCn1c(COc2ccc(F)cc2)nnc1SCC(=O)Nc1cccc(S(N)(=O)=O)c1`, which Potency is on record?
A: Its Potency is inconclusive: 16.4 µM [activator, single point].

Q: For `COc1ccccc1N1CCN(C(=O)c2ccc(COc3cccc4c3OC(C)(C)C4)cc2)CC1`, which Potency is on record?
A: Its Potency is inconclusive: 15.8 µM [activator, single point].

Q: Which Potency does the source give for `NC(=O)C1(N2CCCCC2)CCN(C(=S)NCCc2ccccc2)CC1` here?
A: The Potency was inconclusive: 6.51 µM [activator, single point].

Q: For `CCOc1cc(C(=O)Nc2cnccn2)cc(OCC)c1OCC`, which Potency is on record?
A: The Potency was inconclusive: 23.1 µM [activator, single point].

Q: With `O=C(CSc1nnc(-c2ccccc2)o1)NC1CC1` as the compound, how does the Potency read?
A: The Potency was inconclusive: 1.16 µM [activator, single point].

Q: With `CCOC(=O)C1=C(C)N(c2ccc(C)cc2)C(=O)/C1=C\c1cccs1` as the compound, how does the Potency read?
A: The Potency was “inactive”.

Q: For `Cc1cc(C)c(CN2CCC(n3nccc3NC(=O)CCOc3ccccc3)CC2)cc1C`, which Potency is on record?
A: The Potency was “inactive”.

Q: With `COc1cc(/C=N/Nc2nc3c(c(=O)n(C)c(=O)n3C)n2Cc2ccccc2)ccc1OC(=O)c1ccco1` as the compound, how does the Potency read?
A: The Potency was inconclusive: 29.1 µM [activator, single point].

Q: For `Cc1ccc(CCNC(=O)c2cc(-c3ccncc3)nc3ccccc23)cc1`, which Potency is on record?
A: Its Potency is inconclusive: 29.1 µM [activator, single point].

Q: With `COc1cc(CN(C)CC2CCCN(CCc3ccccc3F)C2)cc(Cl)c1OC` (configuration not stated) as the compound, how does the re-replication activation read?
A: The re-replication activation was inactive: -36.3% [at 1.84 µM].

Q: With `CCOC(=O)C1(Cc2ccccc2)C(=O)N(CCCN(C)C)c2ccccc21` (configuration not stated) as the compound, how does the Potency read?
A: Its Potency is “inactive”.

Q: With `COC(=O)C1=C(Nc2ccc(C)cc2)C=C(C)C(C(=O)OC)C1c1ccc(F)cc1` (configuration not stated) as the compound, how does the Potency read?
A: Its Potency is inconclusive: 20.6 µM [activator, single point].

Q: Which Potency does the source give for `CC(=O)Nc1ccc(Nc2c([N+](=O)[O-])cc(S(C)(=O)=O)cc2[N+](=O)[O-])cc1` here?
A: Its Potency is inconclusive: 23.1 µM [activator, single point].

Q: For `COc1cc(OC)cc(-c2sc3ccc(OC)cc3c2-c2ccc(OCCN3CCCCC3)cc2)c1`, which Potency is on record?
A: Its Potency is inconclusive: 20.6 µM [activator, single point].

Q: For `Cc1cc(OCCCCCNCCO)cc(C)c1Cl`, which Potency is on record?
A: The Potency was inconclusive: 29.1 µM [activator, single point].

Q: Which Potency does the source give for `CCN1CC2=C(OC(N)=C(C#N)C2c2ccccc2)/C(=C\c2ccccc2)C1` (configuration not stated) here?
A: Its Potency is inconclusive: 29.1 µM [activator, single point].

Q: For `CSc1ncccc1C(=O)OCC(=O)Nc1ccc(S(=O)(=O)N2CCCC2)cc1`, which Potency is on record?
A: Its Potency is “inactive”.

Q: Which Potency does the source give for `CC1CCCC(C)N1CCCNC(=O)Cn1c(=O)c2cccn2c2cccnc21` (configuration not stated) here?
A: Its Potency is “inactive”.

Q: Which Potency does the source give for `O=C(O)CN1C(=O)/C(=C\c2cccc(OCc3ccccc3)c2)SC1=S` here?
A: Its Potency is inconclusive: 6.51 µM [activator, single point].

Q: With `CCc1[nH]nc(C(=O)N2CCCC(C(=O)c3cccc(OC(C)C)c3)C2)c1C` (configuration not stated) as the compound, how does the Potency read?
A: Its Potency is inconclusive: 29.1 µM [activator, partial curve, poor fit].

Q: For `CC(=O)Oc1c(Cl)cc(Cl)cc1/C=C/c1ccc2ccccc2n1`, which Potency is on record?
A: The Potency was inconclusive: 25.9 µM [activator, single point].

Q: Which Potency does the source give for `C#CCOc1ccc(C2C3=C(CCCC3=O)N(CC(=O)O)C3=C2C(=O)CCC3)cc1Br` here?
A: The Potency was inconclusive: 25.9 µM [activator, single point].

Q: For `CCn1c(N)[n+](CC(=O)Nc2ccc(SC(F)F)cc2)c2ccccc21`, which Potency is on record?
A: The Potency was inconclusive: 20.6 µM [activator, single point].

Q: With `Cc1cc(C)c2c(c1)cc(C)c1nnc(SCC(=O)Nc3ccc(S(=O)(=O)N4CCCCC4)cc3)n12` as the compound, how does the Potency read?
A: The Potency was “inactive”.

Reference: PubChem BioAssay AID624297 (National Center for Advancing Translational Sciences (NCATS), 2012)
